Measured values as given in PMC3081313, “Factors Defining the Functional Oligomeric State of Escherichia coli DegP Protease” (PLoS ONE, 2011).
No constants are given. Whether binding was seen depends on the method and setting. A result given as binding can be weak or reduced; the word gives no strength.

Biological target: T1, proteolytically inactive DegP_(S210A) (Escherichia coli) (UniProt P0C0V0)
T1 sequence: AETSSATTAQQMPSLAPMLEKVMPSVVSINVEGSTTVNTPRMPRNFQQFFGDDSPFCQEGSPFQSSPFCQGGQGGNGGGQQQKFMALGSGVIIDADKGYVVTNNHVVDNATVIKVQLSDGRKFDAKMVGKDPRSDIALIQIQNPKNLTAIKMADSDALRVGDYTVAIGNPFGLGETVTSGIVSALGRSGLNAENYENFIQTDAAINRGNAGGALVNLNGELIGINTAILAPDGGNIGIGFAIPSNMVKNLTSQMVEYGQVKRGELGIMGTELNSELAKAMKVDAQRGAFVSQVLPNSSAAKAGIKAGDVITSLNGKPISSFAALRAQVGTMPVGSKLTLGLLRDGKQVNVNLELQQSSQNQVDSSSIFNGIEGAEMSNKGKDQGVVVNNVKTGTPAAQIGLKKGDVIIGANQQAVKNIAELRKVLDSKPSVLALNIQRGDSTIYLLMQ
Test: SEC; DegP_(S210A) mixed with full-length α-casein (concentrations in the figure), 37°C 10 min; Superdex 200 in 50 mM HEPES pH 7.3, 150 mM NaCl at 4°C; both purified

Substance: full-length α-casein
- binding: binds
